Seven targets from the supplement of paper PMC10849652 can be followed below.

Chains of the proteins cited; added tags and fusions are not shown. Lines headed by an entry give the natural chain unless they say otherwise; changes in a name come on top.
UniProt Q14671: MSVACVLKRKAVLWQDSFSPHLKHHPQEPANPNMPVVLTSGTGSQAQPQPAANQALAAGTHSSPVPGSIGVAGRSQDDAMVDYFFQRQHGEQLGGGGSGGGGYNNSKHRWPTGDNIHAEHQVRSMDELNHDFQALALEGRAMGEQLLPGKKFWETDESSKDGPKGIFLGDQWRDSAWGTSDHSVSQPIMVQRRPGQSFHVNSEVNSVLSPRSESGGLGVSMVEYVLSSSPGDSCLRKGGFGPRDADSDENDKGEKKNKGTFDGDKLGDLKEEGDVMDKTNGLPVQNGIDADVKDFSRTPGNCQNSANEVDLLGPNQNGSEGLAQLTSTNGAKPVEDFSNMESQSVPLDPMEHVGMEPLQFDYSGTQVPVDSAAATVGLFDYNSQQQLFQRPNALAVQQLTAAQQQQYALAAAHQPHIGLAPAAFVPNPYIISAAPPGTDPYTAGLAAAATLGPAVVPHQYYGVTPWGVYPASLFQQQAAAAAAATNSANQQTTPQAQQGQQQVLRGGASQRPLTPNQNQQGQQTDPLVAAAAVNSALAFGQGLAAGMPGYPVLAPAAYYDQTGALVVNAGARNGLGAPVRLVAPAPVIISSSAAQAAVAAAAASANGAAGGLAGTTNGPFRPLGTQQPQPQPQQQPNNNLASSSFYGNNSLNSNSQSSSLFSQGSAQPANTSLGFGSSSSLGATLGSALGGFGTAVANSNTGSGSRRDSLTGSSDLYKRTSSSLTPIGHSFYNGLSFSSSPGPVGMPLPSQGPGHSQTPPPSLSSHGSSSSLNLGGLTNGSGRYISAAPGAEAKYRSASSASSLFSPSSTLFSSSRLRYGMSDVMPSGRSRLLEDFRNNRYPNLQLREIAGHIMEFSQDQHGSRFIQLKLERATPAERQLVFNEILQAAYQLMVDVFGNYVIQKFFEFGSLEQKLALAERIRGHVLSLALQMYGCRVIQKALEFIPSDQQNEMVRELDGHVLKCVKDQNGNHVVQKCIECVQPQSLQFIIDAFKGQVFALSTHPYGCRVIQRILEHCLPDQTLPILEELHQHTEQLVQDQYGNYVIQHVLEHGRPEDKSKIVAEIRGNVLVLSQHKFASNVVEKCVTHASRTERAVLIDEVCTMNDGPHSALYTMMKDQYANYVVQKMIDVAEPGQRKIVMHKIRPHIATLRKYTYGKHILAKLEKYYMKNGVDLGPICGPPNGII
UniProt P35236: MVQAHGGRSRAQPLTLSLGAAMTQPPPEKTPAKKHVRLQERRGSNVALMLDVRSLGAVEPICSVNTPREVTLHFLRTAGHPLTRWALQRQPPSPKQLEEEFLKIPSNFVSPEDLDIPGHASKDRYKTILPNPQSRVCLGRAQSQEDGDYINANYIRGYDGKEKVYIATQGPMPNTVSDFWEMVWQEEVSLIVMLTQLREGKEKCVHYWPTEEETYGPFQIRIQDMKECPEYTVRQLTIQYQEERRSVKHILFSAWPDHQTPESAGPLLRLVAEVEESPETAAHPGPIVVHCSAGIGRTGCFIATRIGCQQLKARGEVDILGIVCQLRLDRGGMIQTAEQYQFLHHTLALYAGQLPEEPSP
UniProt O75365, whole entry, looked up: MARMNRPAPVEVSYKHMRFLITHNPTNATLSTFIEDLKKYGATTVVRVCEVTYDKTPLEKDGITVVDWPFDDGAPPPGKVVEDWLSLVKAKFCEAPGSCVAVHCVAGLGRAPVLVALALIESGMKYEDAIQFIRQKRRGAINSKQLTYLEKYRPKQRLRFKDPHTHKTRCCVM
UniProt O14818: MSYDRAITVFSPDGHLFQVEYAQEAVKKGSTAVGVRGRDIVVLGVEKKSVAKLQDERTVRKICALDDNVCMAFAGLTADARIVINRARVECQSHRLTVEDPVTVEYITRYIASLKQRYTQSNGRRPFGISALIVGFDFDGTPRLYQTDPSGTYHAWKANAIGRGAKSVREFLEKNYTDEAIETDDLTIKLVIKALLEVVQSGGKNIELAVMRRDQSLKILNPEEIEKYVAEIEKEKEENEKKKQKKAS
UniProt Q7Z5L2: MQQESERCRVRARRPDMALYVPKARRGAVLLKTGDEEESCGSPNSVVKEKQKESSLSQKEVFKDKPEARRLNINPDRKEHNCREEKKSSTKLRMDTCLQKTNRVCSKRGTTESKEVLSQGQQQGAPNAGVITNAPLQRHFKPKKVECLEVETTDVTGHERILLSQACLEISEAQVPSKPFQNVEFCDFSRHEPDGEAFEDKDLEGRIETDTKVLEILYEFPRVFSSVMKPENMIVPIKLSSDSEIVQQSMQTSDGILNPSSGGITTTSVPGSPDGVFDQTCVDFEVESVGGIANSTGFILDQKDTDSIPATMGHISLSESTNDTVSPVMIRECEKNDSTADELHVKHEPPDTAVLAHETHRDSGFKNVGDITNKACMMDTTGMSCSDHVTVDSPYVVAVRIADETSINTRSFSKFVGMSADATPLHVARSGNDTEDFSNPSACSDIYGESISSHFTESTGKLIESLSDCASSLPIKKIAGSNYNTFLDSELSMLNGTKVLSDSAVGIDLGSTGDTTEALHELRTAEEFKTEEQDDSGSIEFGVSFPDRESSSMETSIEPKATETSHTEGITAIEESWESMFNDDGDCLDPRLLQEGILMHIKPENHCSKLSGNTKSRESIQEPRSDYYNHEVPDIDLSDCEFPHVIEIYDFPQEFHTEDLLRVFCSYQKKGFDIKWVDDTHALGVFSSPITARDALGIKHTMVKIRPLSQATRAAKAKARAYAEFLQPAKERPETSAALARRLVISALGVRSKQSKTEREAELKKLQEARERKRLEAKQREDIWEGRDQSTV
UniProt Q9BRQ0: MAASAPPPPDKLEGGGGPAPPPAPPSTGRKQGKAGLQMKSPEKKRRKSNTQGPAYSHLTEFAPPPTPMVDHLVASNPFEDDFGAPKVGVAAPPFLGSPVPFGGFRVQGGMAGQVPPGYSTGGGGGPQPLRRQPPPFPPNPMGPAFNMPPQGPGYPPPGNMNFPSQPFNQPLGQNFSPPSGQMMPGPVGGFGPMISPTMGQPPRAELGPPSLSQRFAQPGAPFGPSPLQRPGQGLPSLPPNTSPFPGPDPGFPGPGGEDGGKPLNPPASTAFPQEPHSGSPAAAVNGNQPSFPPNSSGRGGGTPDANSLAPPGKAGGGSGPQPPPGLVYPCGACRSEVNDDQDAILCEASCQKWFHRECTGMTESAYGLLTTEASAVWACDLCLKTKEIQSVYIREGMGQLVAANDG

Common to all, as to experiment: log2 fold change, soluble protein after heating vs DMSO (PISA); higher = thermal stabilisation; K562 cells, 10 uM, 30 min; active = over 0.2 and 3.5 SD of the protein, either way, in both replicates (recomputed)
Compound in one experiment: CN1CCN(CCOc2cc(OC3CCOCC3)c3c(Nc4c(Cl)ccc5c4OCO5)ncnc3c2)CC1 [saracatinib]
In short, it runs like this: (§1)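 For each measurement, 10 μM compound was applied for 30 min to K562 cells at 2×10^6 cells/mL. Aliquots were heated for 3 min across 48°C-58°C, pooled, and extracted in PBS with 0.5% NP-40 at 4°C; the supernatant after 21,000xg for 90 min was soluble protein. This was quantified by TMTpro 16plex LC-MS/MS with channel sums equalised, and thermal stability was reported relative to control samples from duplicates, on a log2 fold-change scale.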

Compound in a further experiment: CN1CCc2c(c3ccccc3n2Cc2ccc(C(=O)NO)cc2)C1 [Tubastatin A]
The procedure, abridged:
as §1

Compound in experiment [1]: CNC(=O)C1=CC=CC=C1NC2=NC(=NC=C2Cl)NC3=C(C=C(C=C3)N4CCOCC4)OC
The procedure, abridged: as §1

Compound in experiment [2]: CNc1nc(-c2ccc3c(N)n[nH]c3c2)cc(N2C[C@@H](C(=O)NC3CCCCC3)CC[C@H]2C)n1
The procedure, abridged:
as §1

Compound in experiment [3]: COC1=CC=C(C=C1)CN2C=CC3=C2C=C(C=C3)C(=O)NO
The procedure, abridged:
as §1

Compound in the next experiment: CO[C@H]1C[C@@H]2CC[C@@H](C)[C@@](O)(O2)C(=O)C(=O)N2CCCC[C@H]2C(=O)O[C@H]([C@H](C)C[C@@H]2CC[C@H](n3cnnn3)[C@H](OC)C2)CC(=O)[C@H](C)/C=C(\C)[C@@H](O)[C@@H](OC)C(=O)[C@H](C)C[C@H](C)/C=C/C=C/C=C/1C [zotarolimus]
The procedure, abridged:
as §1

Compound in another experiment: COc1cc(C(=O)O)ccc1NC(=O)[C@@H]1N[C@@H](CC(C)(C)C)[C@](C#N)(c2ccc(Cl)cc2F)[C@H]1c1cccc(Cl)c1F [idasanutlin]
In short, it runs like this: as §1

Compound in another experiment: CS(=O)(=O)N1CCN(Cc2cc3nc(-c4cccc5[nH]ncc45)nc(N4CCOCC4)c3s2)CC1 [pictilisib]
In short, it runs like this: as §1

Compound in the next experiment: CN1CCN(c2nc(C3=C(c4c[nH]c5ccccc45)C(=O)NC3=O)c3ccccc3n2)CC1 [sotrastaurin]
The procedure, abridged:
as §1

Compound in another experiment: CN1CC[C@H](c2c(O)cc(O)c3c(=O)cc(-c4ccccc4Cl)oc23)[C@H](O)C1 [alvocidib]
The procedure, abridged: as §1

Compound in the next experiment: CNC(=O)c1ccc(Nc2ncc(C(F)(F)F)c(NCc3nccnc3N(C)S(C)(=O)=O)n2)cc1 [defactinib]
The procedure, abridged:
as §1

Compound in a further experiment: CNCc1ccc(-c2[nH]c3cc(F)cc4c3c2CCNC4=O)cc1 [rucaparib]
In short, it runs like this: as §1

Compound in a further experiment: COC(=O)N[C@@H](C)CNc1nccc(-c2cn(C(C)C)nc2-c2cc(Cl)cc(NS(C)(=O)=O)c2F)n1 [encorafenib]
In short, it runs like this:
as §1

Compound in experiment [4]: COC(=O)[C@H](CCSC)NC(=O)C1=C(C=C(C=C1)NC[C@H](CS)N)C2=CC=CC=C2
In short, it runs like this:
as §1

Compound in the next experiment: CON(C)C(=O)N1N=C(c2cc(F)ccc2F)S[C@@]1(CCCN)c1ccccc1 [filanesib]
In short, it runs like this:
as §1

Compound in experiment [5]: COc1cc2nc(-c3cc(F)ccc3O)nc(N[C@@H]3CNC[C@H]3C(C)(C)O)c2cc1OC
The procedure, abridged: as §1

Compound in another experiment: CS(=O)(=O)CCNCc1ccc(-c2ccc3ncnc(Nc4ccc(OCc5cccc(F)c5)c(Cl)c4)c3c2)o1 [lapatinib]
The procedure, abridged:
as §1

Compound in another experiment: COc1cc(Nc2ncc3c(n2)-c2ccc(Cl)cc2C(c2c(F)cccc2OC)=NC3)ccc1C(=O)O [alisertib]
In short, it runs like this:
as §1

Compound in the next experiment: COc1cc2ncnc(Nc3ccc(F)c(Cl)c3)c2cc1OCCCN1CCOCC1 [gefitinib]
In short, it runs like this: as §1

Compound in experiment [6]: COc1cccc2cc(-c3nc([C@H]4CC[C@H](C(=O)O)CC4)n4ncnc(N)c34)[nH]c12
In short, it runs like this: as §1

The other results are listed elsewhere or left out.

Consider PUM1 (UniProt Q14671), for which the log2 fold change with saracatinib was inactive: -0.155; with Tubastatin A it was inactive: 0; in experiment [1] it was inactive: -0.348; in experiment [2], inactive: -0.232; in experiment [3], inactive: -0.029; with zotarolimus, inactive: -0.076. Moreover, the log2 fold change with idasanutlin was inactive: 0.037; with pictilisib it was inactive: 0.032.
For the target PTPN7 isoform 3 (UniProt P35236), the log2 fold change with sotrastaurin is inactive: -0.374; in the experiment with alvocidib, inactive: 0.037; in experiment [1], inactive: -0.15; in the experiment with defactinib, inactive: 0.006; with rucaparib, inactive: 0.53; with encorafenib it was inactive: 0.342. In addition, the log2 fold change is inactive: -0.137 in experiment [4]; inactive: 0.17 with filanesib; inactive: -0.065 with zotarolimus; inactive: 0.006 in experiment [5]; inactive: 0.271 with lapatinib.
As for PSMD4 (UniProt Q5VWC4), the log2 fold change in the experiment with sotrastaurin is inactive: -0.027; with alvocidib, inactive: 0.018; in the experiment with defactinib, inactive: 0.073; with rucaparib, inactive: 0.285; in the experiment with encorafenib, inactive: 0.118; in experiment [4], inactive: -0.052. In addition, the log2 fold change in [3] is inactive: -0.031; with filanesib, inactive: -0.032; with zotarolimus it was inactive: -0.006; in the experiment with idasanutlin, inactive: -0.007; with alisertib, inactive: -0.068; in experiment [5], inactive: -0.135. In addition, the log2 fold change is inactive: -0.006 with gefitinib, inactive: 0.024 in experiment [6], inactive: 0.052 in the experiment with lapatinib and inactive: -0.13 with pictilisib.
For PTP4A3 (UniProt O75365), the log2 fold change is active: -1.14 with defactinib and inactive: -0.029 in [4].
For PSMA7 isoform 2 (UniProt O14818), the log2 fold change with sotrastaurin is inactive: 0.185; with alvocidib, inactive: 0.16; with Tubastatin A it was inactive: -0.055; in experiment [1], inactive: -0.091; with defactinib, inactive: 0.034; with rucaparib it was inactive: -0.036. In addition, the log2 fold change with encorafenib is inactive: -0.102; in [4], inactive: 0.115; in experiment [3], inactive: -0.519; with filanesib it was inactive: 0.295; in the experiment with zotarolimus, inactive: -0.182; with idasanutlin, inactive: 0.086. Also, the log2 fold change in the experiment with alisertib was inactive: -0.113; in experiment [5], inactive: 0.367; with gefitinib it was inactive: -0.032; in [6], inactive: 0.106; with lapatinib, inactive: -0.347.
For R3HCC1L (UniProt Q7Z5L2), the log2 fold change in the experiment with sotrastaurin was inactive: 0.038; with alvocidib, inactive: 0.082; in the experiment with Tubastatin A, inactive: 0.081; in [1], inactive: -0.096; with defactinib it was inactive: -0.358; in experiment [4], inactive: -0.144. For the same target, the log2 fold change in the experiment with filanesib is inactive: 0.04; with zotarolimus it was inactive: -0.022; with idasanutlin, inactive: -0.316; in [5], inactive: -0.019; with gefitinib, inactive: -0.034; with lapatinib it was inactive: 0.039. The log2 fold change with pictilisib is inactive: 0.196.
Regarding PYGO2 (UniProt Q9BRQ0), the log2 fold change in the experiment with sotrastaurin was inactive: -0.076; in [1], inactive: -0.132; in the experiment with defactinib it was inactive: -0.333; with rucaparib, inactive: 0.077; with encorafenib it was inactive: 0.059; in [4] it was inactive: -0.065. For the same target, the log2 fold change in [3] was inactive: 0.093; with filanesib, inactive: -0.019; with alisertib, inactive: -0.205; in experiment [5], inactive: 0.052; with gefitinib, inactive: -0.037; in experiment [6], inactive: 0.022. In addition, the values for the log2 fold change with lapatinib and with pictilisib were inactive: -0.164 and inactive: -0.117, respectively.
